The target of test [1] is WD repeat protein 92 (WDR92), also known as Monad (human (endogenous in MDA-MB-231)) (UniProt Q96MX6). Kind of test: co-IP; Monad-OIP2 interaction in MDA-MB-231 cells with RNase treatment; data not shown.
For test [2] the target is unchanged. Kind of test: co-IP; MDA-MB-231 lysate (1% Triton X-100, 120 mM NaCl, 5 mM EDTA, 10% glycerol, 20 mM Tris pH 7.4) immunoprecipitated with anti-Monad antibody or control IgG, Protein G Sepharose; immunoblot with anti-OIP2. (In general: Immunoblotting shows a protein as a band on a membrane.)

By UniProt entry, the sequences of proteins in these tests, tags left out.
UniProt Q96MX6: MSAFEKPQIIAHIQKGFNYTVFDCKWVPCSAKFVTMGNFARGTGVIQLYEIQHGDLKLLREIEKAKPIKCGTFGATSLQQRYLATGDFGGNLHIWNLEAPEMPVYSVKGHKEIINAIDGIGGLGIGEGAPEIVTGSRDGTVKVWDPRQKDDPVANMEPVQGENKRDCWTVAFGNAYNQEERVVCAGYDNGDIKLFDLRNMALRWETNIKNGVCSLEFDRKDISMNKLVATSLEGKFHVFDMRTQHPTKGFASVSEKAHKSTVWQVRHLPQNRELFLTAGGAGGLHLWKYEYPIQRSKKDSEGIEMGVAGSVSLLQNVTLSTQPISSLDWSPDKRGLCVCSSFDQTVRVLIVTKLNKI
UniProt Q96B26: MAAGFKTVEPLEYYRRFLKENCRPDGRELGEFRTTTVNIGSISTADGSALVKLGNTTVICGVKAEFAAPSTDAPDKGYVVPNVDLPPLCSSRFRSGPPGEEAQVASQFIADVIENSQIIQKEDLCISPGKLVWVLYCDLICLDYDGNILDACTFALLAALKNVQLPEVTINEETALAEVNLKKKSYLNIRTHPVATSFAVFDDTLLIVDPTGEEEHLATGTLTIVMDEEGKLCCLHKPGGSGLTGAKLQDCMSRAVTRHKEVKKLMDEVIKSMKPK

Results are given in words; binding and its absence hold for the method and conditions named. Binding seen in cells or lysates may run through a third protein. Some entries that bind do so weakly or less than the wild type.

As to “OIP2 (exosome component; human homologue of yeast Rrp43) (from UniProt Q96B26 1-276)”, the binding result in test [1] and in test [2] was “binds” throughout.
